PubChem BioAssay (EPA / NIEHS)
Inconclusive means that the source gave no clear call. Such entries were picked first, then a sample of the others. For some assays here: Where the call is inconclusive, the potency comes from a doubtful curve fit. The source holds several records for some structures; these can differ, active in one and inactive in another. Calls of active or inactive are those of the source. Rule for the calls: active = hit-call score of the fitted dose curve at least 0.9, where 1 is the maximum; inconclusive = response in the unintended direction; inactive = score below 0.9.

Sequences of proteins named here, by UniProt entry; tags and fusion partners are left off. A change or cut given only in a name is not applied to a line headed by its entry.
UniProt O75469: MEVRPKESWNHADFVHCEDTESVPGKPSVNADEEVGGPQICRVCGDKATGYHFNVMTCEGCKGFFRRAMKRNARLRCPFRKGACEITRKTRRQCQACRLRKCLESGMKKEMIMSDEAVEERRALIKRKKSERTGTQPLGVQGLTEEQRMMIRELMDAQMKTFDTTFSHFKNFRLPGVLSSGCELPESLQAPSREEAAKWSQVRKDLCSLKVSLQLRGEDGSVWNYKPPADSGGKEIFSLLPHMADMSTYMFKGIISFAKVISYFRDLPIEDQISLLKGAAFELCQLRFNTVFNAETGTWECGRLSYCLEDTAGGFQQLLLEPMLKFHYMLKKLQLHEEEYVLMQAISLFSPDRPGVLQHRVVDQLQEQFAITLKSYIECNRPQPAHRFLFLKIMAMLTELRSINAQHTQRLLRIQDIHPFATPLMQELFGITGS
UniProt Q01717: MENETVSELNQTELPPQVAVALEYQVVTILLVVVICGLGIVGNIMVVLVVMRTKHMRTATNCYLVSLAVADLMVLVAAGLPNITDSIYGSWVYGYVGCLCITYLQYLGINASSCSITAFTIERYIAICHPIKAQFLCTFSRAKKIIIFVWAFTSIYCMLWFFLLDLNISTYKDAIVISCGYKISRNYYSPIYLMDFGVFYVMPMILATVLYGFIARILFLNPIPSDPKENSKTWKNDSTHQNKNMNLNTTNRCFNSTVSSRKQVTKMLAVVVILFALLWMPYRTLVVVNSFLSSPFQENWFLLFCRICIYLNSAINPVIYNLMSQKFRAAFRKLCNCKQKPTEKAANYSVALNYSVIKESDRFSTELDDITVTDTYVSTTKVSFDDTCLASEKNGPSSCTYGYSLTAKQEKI
UniProt P04150: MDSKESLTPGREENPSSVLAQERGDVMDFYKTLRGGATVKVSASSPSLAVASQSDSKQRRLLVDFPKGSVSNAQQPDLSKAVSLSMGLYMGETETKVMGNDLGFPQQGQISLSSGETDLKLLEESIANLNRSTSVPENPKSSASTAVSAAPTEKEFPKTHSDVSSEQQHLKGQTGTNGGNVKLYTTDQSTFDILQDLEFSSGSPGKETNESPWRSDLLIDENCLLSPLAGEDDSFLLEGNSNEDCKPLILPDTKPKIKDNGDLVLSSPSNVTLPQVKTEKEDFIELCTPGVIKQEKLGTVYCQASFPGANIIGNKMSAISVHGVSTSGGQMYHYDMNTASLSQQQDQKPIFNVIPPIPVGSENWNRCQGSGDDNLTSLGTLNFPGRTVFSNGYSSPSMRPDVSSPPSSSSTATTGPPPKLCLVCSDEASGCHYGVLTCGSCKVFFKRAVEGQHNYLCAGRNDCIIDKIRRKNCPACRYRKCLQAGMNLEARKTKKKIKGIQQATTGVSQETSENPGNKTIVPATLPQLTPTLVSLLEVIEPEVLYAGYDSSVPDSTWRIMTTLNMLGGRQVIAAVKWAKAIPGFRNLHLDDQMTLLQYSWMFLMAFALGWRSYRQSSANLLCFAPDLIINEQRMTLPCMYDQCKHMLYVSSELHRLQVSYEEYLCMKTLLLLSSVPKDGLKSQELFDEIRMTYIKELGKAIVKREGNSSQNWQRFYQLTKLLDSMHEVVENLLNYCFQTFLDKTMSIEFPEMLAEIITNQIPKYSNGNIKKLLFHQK
UniProt Q96RI1: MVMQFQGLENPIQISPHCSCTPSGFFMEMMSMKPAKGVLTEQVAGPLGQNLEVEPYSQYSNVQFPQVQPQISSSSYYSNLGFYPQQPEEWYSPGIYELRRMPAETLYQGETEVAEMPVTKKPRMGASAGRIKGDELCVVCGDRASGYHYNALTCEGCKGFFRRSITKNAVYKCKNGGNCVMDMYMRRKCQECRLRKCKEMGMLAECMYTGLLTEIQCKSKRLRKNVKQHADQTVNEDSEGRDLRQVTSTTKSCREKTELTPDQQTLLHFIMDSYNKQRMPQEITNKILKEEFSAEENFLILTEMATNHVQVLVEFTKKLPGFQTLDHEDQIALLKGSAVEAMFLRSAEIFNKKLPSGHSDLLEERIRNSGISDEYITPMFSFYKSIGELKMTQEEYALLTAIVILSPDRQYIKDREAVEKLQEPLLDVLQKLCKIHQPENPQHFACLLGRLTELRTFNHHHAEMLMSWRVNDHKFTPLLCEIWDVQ
UniProt P33261, whole entry, looked up: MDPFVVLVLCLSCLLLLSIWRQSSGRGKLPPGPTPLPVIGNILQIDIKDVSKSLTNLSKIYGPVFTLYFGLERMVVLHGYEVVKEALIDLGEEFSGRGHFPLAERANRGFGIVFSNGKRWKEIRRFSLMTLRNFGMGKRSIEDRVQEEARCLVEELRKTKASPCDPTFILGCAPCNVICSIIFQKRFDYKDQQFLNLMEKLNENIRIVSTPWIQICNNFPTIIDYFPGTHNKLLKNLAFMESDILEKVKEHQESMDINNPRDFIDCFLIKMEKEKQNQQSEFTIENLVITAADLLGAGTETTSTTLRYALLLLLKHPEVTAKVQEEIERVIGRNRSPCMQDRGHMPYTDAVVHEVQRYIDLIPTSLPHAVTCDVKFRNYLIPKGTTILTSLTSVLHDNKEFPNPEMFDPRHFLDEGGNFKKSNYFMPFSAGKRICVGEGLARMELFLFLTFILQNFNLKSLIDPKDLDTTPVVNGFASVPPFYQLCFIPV
UniProt P04406: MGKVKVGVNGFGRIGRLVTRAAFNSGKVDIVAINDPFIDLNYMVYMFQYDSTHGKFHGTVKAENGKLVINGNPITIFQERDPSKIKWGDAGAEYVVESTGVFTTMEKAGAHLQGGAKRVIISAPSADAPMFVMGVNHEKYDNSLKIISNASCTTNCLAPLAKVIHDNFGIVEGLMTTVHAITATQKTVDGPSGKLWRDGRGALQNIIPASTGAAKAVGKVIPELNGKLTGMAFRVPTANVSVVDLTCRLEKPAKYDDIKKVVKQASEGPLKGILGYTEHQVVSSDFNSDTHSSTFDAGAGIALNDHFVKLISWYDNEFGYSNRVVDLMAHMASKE
UniProt P11712, whole entry, looked up: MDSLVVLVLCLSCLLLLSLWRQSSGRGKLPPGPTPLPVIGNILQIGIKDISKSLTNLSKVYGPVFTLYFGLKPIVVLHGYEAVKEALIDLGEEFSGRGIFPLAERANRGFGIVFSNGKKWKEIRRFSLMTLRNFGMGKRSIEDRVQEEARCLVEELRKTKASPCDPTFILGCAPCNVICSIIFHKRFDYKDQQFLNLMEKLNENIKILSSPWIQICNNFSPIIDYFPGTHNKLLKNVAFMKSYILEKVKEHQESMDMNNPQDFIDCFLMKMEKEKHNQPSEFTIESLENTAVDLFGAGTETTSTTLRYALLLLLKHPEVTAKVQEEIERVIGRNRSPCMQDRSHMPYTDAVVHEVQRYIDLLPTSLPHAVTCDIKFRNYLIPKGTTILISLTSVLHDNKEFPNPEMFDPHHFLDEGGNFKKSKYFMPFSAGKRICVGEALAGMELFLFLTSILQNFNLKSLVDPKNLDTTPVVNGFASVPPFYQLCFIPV
UniProt Q9UNQ0: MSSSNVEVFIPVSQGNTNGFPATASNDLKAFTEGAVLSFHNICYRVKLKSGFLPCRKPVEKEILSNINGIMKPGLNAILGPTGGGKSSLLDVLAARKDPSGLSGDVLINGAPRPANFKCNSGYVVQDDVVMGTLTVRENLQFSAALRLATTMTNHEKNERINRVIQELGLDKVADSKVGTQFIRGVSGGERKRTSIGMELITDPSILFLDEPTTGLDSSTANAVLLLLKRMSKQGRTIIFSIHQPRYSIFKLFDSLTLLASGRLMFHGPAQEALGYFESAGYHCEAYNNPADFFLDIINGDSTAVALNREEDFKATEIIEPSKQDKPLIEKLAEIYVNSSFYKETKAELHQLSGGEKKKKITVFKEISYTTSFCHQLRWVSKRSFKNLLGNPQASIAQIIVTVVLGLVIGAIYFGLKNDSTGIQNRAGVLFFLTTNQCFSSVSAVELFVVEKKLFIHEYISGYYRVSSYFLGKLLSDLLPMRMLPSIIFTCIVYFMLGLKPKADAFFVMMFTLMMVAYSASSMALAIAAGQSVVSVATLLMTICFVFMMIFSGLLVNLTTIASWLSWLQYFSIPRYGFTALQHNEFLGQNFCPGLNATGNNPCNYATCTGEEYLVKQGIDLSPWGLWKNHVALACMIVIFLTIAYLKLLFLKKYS

Key:
[1] = target: Nuclear receptor subfamily 1 group I member 2 (Homo sapiens) (UniProt O75469); test: ATG_PXR_TRANS: Attagene TRANS-FACTORIAL HepG2 Assay for human Pregnane X Receptor (PXR) (AID 2283008)
How it was run: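 Trans-factorial format: exogenous NR-Gal4 fusion activity, not endogenous factor, in transfected human HepG2 liver cells. After 24 h dosing, RNA isolated, reverse-transcribed, amplified and resolved by capillary electrophoresis; induction scored versus DMSO.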

[2] = target: rat Thyrotropin Releasing Hormone Receptor (TRH), Trhr (gene 25570) (UniProt Q01717); test: NVS_GPCR_rTRH: NovaScreen (NVS) G Protein-Coupled Receptor Assay for rat Thyrotropin Releasing Hormone Receptor (TRH) (AID 2283329);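 note: hit means lower bound tracer signal versus DMSO baseline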
How it was run: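 Rat forebrain membrane prep, radioligand displacement, filter scintillation readout at 4 h. Single conc 25 uM, duplicate; actives retested as concentration series. DMSO = negative control/baseline.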

[3] = target: Glucocorticoid receptor (Homo sapiens) (UniProt P04150); test: ATG_GR_TRANS: Attagene TRANS-FACTORIAL HepG2 Assay for human Glucocorticoid Receptor (GR) (AID 2282978); conditions: HepG2 Attagene TRANS GR reporter, mRNA transcription;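 note: activators score as hits since higher reporter transcript over DMSO is fitted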
How it was run: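 In this trans-factorial format, exogenous NR-GAL4 chimeric proteins in transfected HepG2 cells regulate GAL4-UAS reporter transcription. After 24 h treatment, reporter mRNA induction relative to DMSO is read by RT-PCR and capillary electrophoresis.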

[4] = CCTE_Deisenroth_AIME_384WELL_CTox_Inactive: Cytotoxicity Assessment (CTOX) in CCTE's 384-well Estrogen Receptor Transactivation Assay without AIME metabolic competence (metabolism negative), Deisenroth Lab (AID 2284039);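 note: cell viability via live-cell protease substrate cleaved to fluorescent probe; cells exposed 24 h to medium preincubated 2 h with alginate-water beads without S9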
How it was run: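 Metabolism-negative arm: chemicals (10-point, 0.002 - 200 uM) preincubated 2 h with alginate-water lids, medium moved onto VM7Luc4E2 cells for 24 h. Fluorescent live-cell protease readout; bidirectional curve fit.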

[5] = target: Bile acid receptor (Homo sapiens) (UniProt Q96RI1); test: ATG_FXR_TRANS: Attagene TRANS-FACTORIAL HepG2 Assay for Farnesoid X Receptor (FXR) (AID 2282979); conditions: HepG2 Attagene TRANS FXR-GAL4 reporter transcription;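 note: hits raise reporter mRNA above DMSO so AC50 marks FXR activation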
How it was run: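 Transient transfection of HepG2 with multiplexed GAL4-UAS reporter units; exogenous FXR-GAL4 chimera. Dose 24 h → TriZol RNA → oligo(dT) RT → PCR, 6-FAM primer extension, HpaI cut → CE. Gain vs DMSO.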

[6] = CLD_ACTIN_6hr: CellzDirect (CLD) Gene Expression Assay for Baseline Control (Actin) at 6 hours (AID 2283676)
How it was run: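 Baseline actin transcript level measured by qNPA (S1 nuclease protection, chemiluminescence) in human hepatocyte cultures 6 h after chemical exposure; 0.2% DMSO vehicle as reference, cytotoxicity noted from morphology.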

[7] = read-out: Cytochrome P450 2C19 (Homo sapiens) (UniProt P33261); test: CLD_CYP2C19_6hr: CellzDirect (CLD) Gene Expression Assay for xenobiotic metabolism (CYP2C19) at 6 hours (AID 2283678)
How it was run: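 CYP2C19 transcript induction was quantified by quantitative nuclease protection assay with chemiluminescent read-out, 6 h after dosing. Cells were primary human hepatocytes from two donor preparations, given fresh dosing solutions daily in 0.2% DMSO vehicle. Activity was relative to DMSO.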

[8] = read-out: HMG-CoA synthase (HMGCS2), HMGCS2 (gene 3158); test: CLD_HMGCS2_6hr: CellzDirect (CLD) Gene Expression Assay for HMG-CoA synthase (HMGCS2) at 6 hours (AID 2283682);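 note: actives raise HMGCS2 transcript above the 0.2% DMSO vehicle baseline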
How it was run: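 HMGCS2 transcript induction read by quantitative nuclease protection with chemiluminescence, 6 h after dosing of primary human hepatocytes. Baseline was 0.2% DMSO vehicle; phase-contrast morphology gave a yes/no cytotoxicity annotation.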

[9] = read-out: Cytochrome P450 2C19 (Homo sapiens) (UniProt P33261); test: CLD_CYP2C19_24hr: CellzDirect (CLD) Gene Expression Assay for xenobiotic metabolism (CYP2C19) at 24 hours (AID 2283687)
How it was run: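 CYP2C19 mRNA was quantified by qNPA chemiluminescence after 24 h of daily dosing of cultured human primary hepatocytes from two donors; vehicle was 0.2% DMSO, and increases over DMSO baseline were fitted.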

[10] = read-out: Glyceraldehyde-3-phosphate dehydrogenase (Homo sapiens) (UniProt P04406); test: CLD_GAPDH_24hr: CellzDirect (CLD) Gene Expression Assay for Baseline Control (Glyceraldehyde 3-phosphate dehydrogenase) at 24 hours (AID 2283692)
How it was run: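 GAPDH baseline-control readout: qNPA chemiluminescent mRNA signal in human primary hepatocytes harvested 24 h after daily dosing, normalised to 0.2% DMSO with positive fitting direction; cytotoxicity annotated by phase-contrast morphology.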

[11] = read-out: ABC Transporter (ABCB11), ABCB11 (gene 8647); test: CLD_ABCB11_48hr: CellzDirect (CLD) Gene Expression Assay for ABC Transporter (ABCB11) at 48 hours (AID 2283697)
How it was run: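 Induction of ABCB11 mRNA relative to 0.2% DMSO, measured at 48 h by qNPA chemiluminescence. Cultured human hepatocytes (two donors) received fresh dosing solutions at several concentrations on two consecutive days.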

[12] = read-out: Cytochrome P450 2C19 (Homo sapiens) (UniProt P33261); test: CLD_CYP2C19_48hr: CellzDirect (CLD) Gene Expression Assay for xenobiotic metabolism (CYP2C19) at 48 hours (AID 2283700);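 for outcome: fitted upward so actives raise CYP2C19 mRNA above the 0.2% DMSO vehicle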
How it was run: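 CYP2C19 mRNA induction read by chemiluminescent quantitative nuclease protection assay after 48 h, with fresh compound added daily for two days to cultured human liver hepatocytes. Activity fitted upward against 0.2% DMSO vehicle.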

[13] = read-out: Glyceraldehyde-3-phosphate dehydrogenase (Homo sapiens) (UniProt P04406); test: CLD_GAPDH_6hr: CellzDirect (CLD) Gene Expression Assay for Baseline Control (Glyceraldehyde 3-phosphate dehydrogenase) at 6 hours (AID 2283681)
How it was run: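 GAPDH baseline-control readout from qNPA (S1 nuclease digestion, probe hybridization, chemiluminescence) in lysates of cultured human hepatocytes harvested 6 h post-dosing. Chemicals tested at multiple concentrations versus 0.2% DMSO vehicle; microscopy-based cytotoxicity flagged yes/no.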

[14] = read-out: Cytochrome P450 2C9 (Homo sapiens) (UniProt P11712); test: CLD_CYP2C9_24hr: CellzDirect (CLD) Gene Expression Assay for xenobiotic metabolism (CYP2C9) at 24 hours (AID 2283688)
How it was run: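 Induction of CYP2C9 mRNA was quantified by quantitative nuclease protection assay (chemiluminescence), gain of signal versus 0.2% DMSO vehicle, 24 h after dosing. Human primary hepatocytes (two donors) received fresh chemical daily at multiple concentrations; morphology-based cytotoxicity flagged yes/no.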

[15] = read-out: alkyl and aryl transferase (GSTA2), GSTA2 (gene 2939); test: CLD_GSTA2_48hr: CellzDirect (CLD) Gene Expression Assay for alkyl and aryl transferase (GSTA2) at 48 hours (AID 2283708);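 note: active means mRNA induction above DMSO vehicle baseline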
How it was run: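 GSTA2 mRNA quantified by qNPA chemiluminescence in human primary hepatocyte lysates after 48 h of daily fresh chemical dosing. Increases fitted against 0.2% DMSO vehicle baseline; cytotoxicity from morphology annotated yes/no.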

[16] = read-out: organic anion transporter (SLCO1B1), SLCO1B1 (gene 10599); test: CLD_SLCO1B1_24hr: CellzDirect (CLD) Gene Expression Assay for organic anion transporter (SLCO1B1) at 24 hours (AID 2283690)
How it was run: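 SLCO1B1 mRNA induction read at 24 h by quantitative nuclease protection assay (chemiluminescence), analyzed against DMSO baseline. Human hepatocyte cultures from separate donors received fresh dosing solutions daily; vehicle 0.2% DMSO; cytotoxicity flagged by phase-contrast morphology.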

[17] = CCTE_Deisenroth_AIME_384WELL_CTox_Active: Cytotoxicity Assessment (CTOX) in CCTE's 384-well Estrogen Receptor Transactivation Assay with AIME metabolic competence (metabolism positive), Deisenroth Lab (AID 2284037);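 note: chemicals first conditioned 2 h by alginate-bound induced rat liver S9 before cells; activity means signal loss indicating cell death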
How it was run: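 VM7Luc4E2 breast cells received medium pre-incubated 2 h with chemical over alginate microspheres holding induced male Sprague Dawley rat liver S9; viability read 24 h later by protease-substrate fluorescence. Loss of signal, bidirectional fit, 0.002–200 uM.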

[18] = ATG_Hpa5_TRANS: Attagene TRANS-FACTORIAL HepG2 Assay for human GAL4-Hpa5 Hepatocyte Transcription Factor Basal Promoter (AID 2282975); conditions: HepG2 Attagene GAL4-Hpa5 transcription reporter
How it was run: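 Gain-of-signal versus DMSO is fitted for reporter mRNA quantified by RT-PCR and capillary electrophoresis after 24 h exposure. This endpoint is an internal background marker in transiently transfected HepG2 cells carrying GAL4-UAS reporter units.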

[19] = read-out: Broad substrate specificity ATP-binding cassette transporter ABCG2 (Homo sapiens) (UniProt Q9UNQ0); test: CLD_ABCG2_48hr: CellzDirect (CLD) Gene Expression Assay for ABC Transporter (ABCG2) at 48 hours (AID 2283704);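 note: potency for induction of ABCG2 mRNA above the DMSO baseline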
How it was run: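 ABCG2 transcript measured at 48 h by quantitative nuclease protection (chemiluminescent) and fitted for increase relative to 0.2% DMSO. Hepatocyte cultures from separate donors got fresh compound daily over two days; morphology annotated cytotoxicity.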

With `CCOP(=O)(OCC)OCC` the AC50 [2] was inconclusive: 25 µM.
In the case of `O=C(CBr)c1ccc(O)cc1`, the outcome [2] is reported as “inactive” and the AC50 [4] is reported as inconclusive: 1.3 nM.
For `COC[C@H](C)N(C(=O)CCl)c1c(C)csc1C`, the AC50 [1] was active: 33.7 µM.
With `N#Cc1ccc(O)cc1` the AC50 [1] was inconclusive: 0.108 µM.
With `COc1cc(Cl)c(OC)cc1Cl` the AC50 [6] was inconclusive: 20 µM, the AC50 [7] was inconclusive: 20 µM and the AC50 [13] was inconclusive: 20 µM. For the same compound, the AC50 [8] was inconclusive: 0.0004 µM, the outcome [14] was “inactive” and the AC50 [10] was inconclusive: 20 µM. The outcome [15] was “inactive”.
For `ClC1C(Cl)C(Cl)C(Cl)C(Cl)C1Cl` (centres undefined), the AC50 [5] was active: 139 µM, the outcome [2] was “inactive” and the AC50 [7] was inconclusive: 20 µM. For the same compound, the AC50 [13] was inconclusive: 1.7 µM, the AC50 [8] was inconclusive: 4.13 µM and the outcome [14] was “inactive”. The AC50 [16] was inconclusive: 20 µM, the AC50 [10] was inconclusive: 20 µM and the AC50 [11] was inconclusive: 2.27 µM. For the same compound, the AC50 [12] was inconclusive: 20 µM, the AC50 [17] was inconclusive: 0.0002 µM and the AC50 [4] was inconclusive: 0.824 nM.
With `CC1=C(C(=O)Nc2ccccc2)SCCO1` the AC50 [18] was inconclusive: 50 µM, the AC50 [3] was inconclusive: 50 µM and the AC50 [6] was inconclusive: 20 µM. For the same compound, the AC50 [7] was inconclusive: 20 µM, the AC50 [13] was inconclusive: 20 µM and the AC50 [8] was inconclusive: 20 µM. For the same compound, the AC50 [9] was inconclusive: 20 µM, the outcome [14] was “inactive” and the AC50 [16] was inconclusive: 34.6 µM. For the same compound, the AC50 [10] was inconclusive: 31.8 µM, the AC50 [11] was inconclusive: 20 µM and the AC50 [12] was inconclusive: 20 µM. The AC50 [19] was inconclusive: 4.24 µM, the AC50 [15] was inconclusive: 11.9 µM and the AC50 [17] was inconclusive: 0.000199 µM. For the same compound, the AC50 [4] was inconclusive: 0.0183 nM.
In the case of `c1ccc(NNc2ccccc2)cc1`, the outcome [3] is reported as “inactive”, the AC50 [17] is reported as inconclusive: 0.00123 µM and the AC50 [4] is reported as inconclusive: 248 nM.
With `CCCCC(CC)COC(=O)c1ccc(C(=O)OCC(CC)CCCC)c(C(=O)OCC(CC)CCCC)c1` (centres undefined) the AC50 [3] was inconclusive: 100 µM and the outcome [1] was “inactive”.
With `CC1CCC(=O)O1` (centres undefined) the outcome [3] was “inactive”.
